Data as given in PubChem BioAssay AID1159578 (Peter MacCallum Cancer Centre, 2015).
The whole screen tested about 18,000 reagents; below is a part drawn at random. About 1,030 of them (5.7%) count as active. 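Inactive calls also include pools with fewer than 3300 nuclei, whose migration was not assessed.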 Raw values are not corrected between plates. Not all columns of the deposit are shown.

- Test: 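Genome-wide hunt for genes controlling movement of lymphatic endothelial cells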 (primary screen)
- Cells: human lymphatic endothelial cells
- Reagent: siRNA pool against human genes, 40 nM
- Time to read-out: 48 h after transfection
- Read-out: 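High-content imaging of dye-stained cells in a scratch assay measures filled wound area and nuclei per well; duplicate means given as ratio to mock and robust z-score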
- Scale: migration robust z-score: higher = faster migration into the scratch; nuclei per well: higher = more cells in the well
- Hit rule: 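Pools averaging fewer than 3300 nuclei are never called; remaining pools count as changed when migration robust z lies outside -2 to 2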
- Meaning of the calls: active = migration changed; inactive = no migration change, or too few cells

GTF2E2 (general transcription factor IIE subunit 2) [SID255350087]
- migration robust z-score: -0.05
- nuclei per well, duplicate mean: 5966
- outcome: inactive

DMAC2 (distal membrane arm assembly component 2) [SID255358409]
- migration robust z-score: 0.31
- nuclei per well, duplicate mean: 5044
- outcome: inactive

VDAC2 (voltage dependent anion channel 2) [SID255353099]
- migration robust z-score: 0.7
- nuclei per well, duplicate mean: 3900
- outcome: inactive

CTNND1 (catenin delta 1) [SID255349164]
- migration robust z-score: -0.58
- nuclei per well, duplicate mean: 6426
- outcome: inactive

CKMT1B (creatine kinase, mitochondrial 1B) [SID255348938]
- migration robust z-score: 0.46
- nuclei per well, duplicate mean: 6316
- outcome: inactive

HELZ (helicase with zinc finger) [SID255354676]
- migration robust z-score: -0.54
- nuclei per well, duplicate mean: 5065
- outcome: inactive

PSMD13 (proteasome 26S subunit, non-ATPase 13) [SID255351911]
- migration robust z-score: 0.16
- nuclei per well, duplicate mean: 6438
- outcome: inactive

No new results follow: an excerpt of the list.
DMAC2 (distal membrane arm assembly component 2) [SID255358409]
- migration robust z-score: 0.31
- nuclei per well, duplicate mean: 5044
- outcome: inactive

VDAC2 (voltage dependent anion channel 2) [SID255353099]
- migration robust z-score: 0.7
- nuclei per well, duplicate mean: 3900
- outcome: inactive

Further records follow:
ZSWIM4 (zinc finger SWIM-type containing 4) [SID255360103]
- migration robust z-score: 1.58
- nuclei per well, duplicate mean: 6392
- outcome: inactive

PATZ1 (POZ/BTB and AT hook containing zinc finger 1) [SID255356358]
- migration robust z-score: 1.5
- nuclei per well, duplicate mean: 5158
- outcome: inactive

CNOT9 (CCR4-NOT transcription complex subunit 9) [SID255354054]
- migration robust z-score: -0.48
- nuclei per well, duplicate mean: 6520
- outcome: inactive

PLA2G6 (phospholipase A2 group VI) [SID255353527]
- migration robust z-score: 0.9
- nuclei per well, duplicate mean: 5100
- outcome: inactive

PASD1 (PAS domain containing repressor 1) [SID255363065]
- migration robust z-score: -0.03
- nuclei per well, duplicate mean: 6710
- outcome: inactive
